According to publication PMC3679108, “A Novel Glucagon-Related Peptide (GCRP) and Its Receptor GCRPR Account for Coevolution of Their Family Members in Vertebrates” (PLoS ONE, 2013):
Results are given in words; binding and its absence hold for the method and conditions named. Binding can be weak; no strength is given.

Columns and labels:
Experiment in all cases: radioligand binding; competitive displacement on HEK293T cells transfected with GCRPR (300 ng DNA/well, 12-well plates); 100,000 cpm 125I-chGCRP without or with various concentrations of cold peptides, 1 h, binding buffer (serum-free DMEM with 0.1% BSA, pH 7.4); IC50 by nonlinear regression; only the binder purified
[1] = molecular target: Xenopus GCRP receptor (Xenopus)
[2] = molecular target: chicken GCRP receptor (chicken)
[3] = molecular target: medaka GCRP receptor (medaka)

Measured: binding

HSEGTFTSDFTRYLDKMKAKDFVHWLINT (125I (radioiodinated by the chloramine-T method)) [125I-chGCRP]
binds: [1] | [2] | [3]
